Taken from: PubChem BioAssay AID652243 (Drosophila RNAi Screening Center, 2013)

- Purpose: 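Fly regulators of androgen-dependent reporter output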 (primary screen)
- System: Drosophila S2R+ cells
- Reagent: long dsRNA against Drosophila genes
- Timing: 72 h (48 h, then 24 h hormone)
- Conditions: synthetic androgen R1881 at 10 nM for 24 h
- Read-out: 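Firefly light from an androgen-responsive reporter and Renilla control light per well, raw and unnormalised, for each of two replicates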
- Scale: firefly reporter light: higher = more light from androgen-responsive reporter; Renilla control light: higher = more constitutive control signal (cell number, transfection)
- Call rule: 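Across duplicate plates, a knock-down whose log firefly/Renilla ratio shifted a set fold down or up from the GFP/LacZ control mean was a hit; the downward cut appears as both 1.5 and 3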
- Calls: active = hit: reporter lowered or raised; inactive = no hit
The screen tested about 24,000 reagents; this is an unselected part of those that have a named target and a result. Of all reagents, 246 (1%) are marked active. 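Plates not normalised; calls are printed but the firefly/Renilla ratio behind them is not deposited; fold cut for lowering reported inconsistently.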 Raw values vary from plate to plate and are shown uncorrected. A plus sign joins genes that one reagent is predicted to hit. The record does not give: the amount of reagent.

predicted target | DRSC id | firefly reporter light, replicate 1 | firefly reporter light, replicate 2 | Renilla control light, replicate 1 | Renilla control light, replicate 2 | Outcome
CG9815 | DRSC04567 | 1.63e5 | 2.20e5 | 1.45e6 | 1.96e6 | inactive
CG9815 | DRSC25175 | 5.25e5 | 7.07e5 | 9.55e5 | 1.17e6 | inactive
dgt1 | DRSC15301 | 1.05e5 | 81774 | 1.53e5 | 1.22e5 | inactive
CG8042 | DRSC09676 | 7.36e5 | 2.51e5 | 1.52e6 | 9.47e5 | inactive
CG8042 | DRSC24712 | 8.75e5 | 7.12e5 | 1.03e6 | 1.13e6 | inactive
CG9593 | DRSC16508 | 1.08e5 | 1.79e5 | 2.15e6 | 2.22e6 | inactive
SmE | DRSC02680 | 2.15e5 | 2.25e5 | 1.98e6 | 1.39e6 | inactive
CG1545 | DRSC21532 | 7.40e5 | 5.23e5 | 2.26e6 | 2.79e6 | inactive
Herp | DRSC02394 | 1.17e6 | 1.21e6 | 1.89e6 | 1.63e6 | inactive
Herp | DRSC26891 | 4.83e5 | 4.52e5 | 8.04e5 | 4.68e5 | inactive
brwl | DRSC01080 | 19673 | 21948 | 75701 | 59711 | inactive
brwl | DRSC24965 | 6.38e5 | 8.32e5 | 1.02e6 | 9.41e5 | inactive
Rga | DRSC29179 | 6.77e5 | 5.76e5 | 1.73e6 | 1.52e6 | inactive
mdy | DRSC01559 | 2.37e5 | 2.11e5 | 3.58e5 | 5.22e5 | inactive
mdy | DRSC02250 | 9.23e5 | 6.38e5 | 2.29e6 | 1.97e6 | inactive
CG6550 | DRSC07001 | 8.12e5 | 9.01e5 | 1.50e6 | 1.71e6 | inactive
CG32241 | DRSC08100 | 3.01e5 | 3.22e5 | 3.76e5 | 2.12e5 | inactive
CG32241 | DRSC21518 | 4.06e5 | 2.81e5 | 1.91e6 | 1.78e6 | inactive
CG32241 | DRSC25178 | 7.03e5 | 7.30e5 | 7.14e5 | 7.79e5 | inactive
rno | DRSC08584 | 1.31e5 | 1.97e5 | 1.85e6 | 1.79e6 | inactive
Or43b | DRSC07486 | 1.96e5 | 3.16e5 | 1.73e6 | 1.95e6 | inactive
Or43b | DRSC29565 | 3.82e5 | 6.00e5 | 7.26e5 | 7.26e5 | inactive
CG13970 | DRSC02311 | 77519 | 59082 | 1.10e6 | 9.51e5 | inactive
CG13970 | DRSC29509 | 3.16e5 | 3.70e5 | 7.98e5 | 7.98e5 | inactive
Ucp4B + asRNA:CR43465 | DRSC02665 | 1.25e5 | 1.72e5 | 1.17e6 | 1.41e6 | inactive
CG9467 | DRSC16498 | 78210 | 88142 | 6.63e5 | 9.15e5 | inactive
CG3513 | DRSC00608 | 1.81e5 | 80625 | 1.08e6 | 1.10e6 | inactive
CG33919 | DRSC38888 | 1.20e6 | 1.05e6 | 2.33e6 | 1.50e6 | inactive
Npc2e | DRSC15522 | 1.02e5 | 1.27e5 | 1.92e6 | 1.91e6 | inactive
Npc2e | DRSC22338 | 7.27e5 | 9.45e5 | 2.57e5 | 2.46e5 | inactive
CG32073 | DRSC09087 | 2.14e5 | 46615 | 3.54e5 | 1.47e5 | inactive
CG32073 | DRSC09894 | 2.95e5 | 3.30e5 | 3.45e6 | 3.16e6 | inactive
CR32733 | DRSC17481 | 3.34e5 | 3.29e5 | 6.61e5 | 5.41e5 | inactive
CR32733 | DRSC28689 | 2.69e5 | 2.96e5 | 1.42e6 | 1.60e6 | inactive
Fic | DRSC03247 | 4.65e5 | 6.68e5 | 1.18e6 | 1.25e6 | inactive
Marc | DRSC06614 | 3.34e5 | 1.91e5 | 1.82e6 | 1.60e6 | inactive
Nsf2 | DRSC22104 | 5.15e5 | 5.80e5 | 2.26e6 | 1.74e6 | inactive
Nsf2 | DRSC27428 | 2.91e5 | 2.49e5 | 7.10e5 | 7.91e5 | inactive
Cyp4ac2 | DRSC03303 | 2.02e5 | 2.34e5 | 1.56e6 | 1.50e6 | inactive
CG4021 | DRSC04439 | 3.38e5 | 3.45e5 | 2.20e6 | 2.39e6 | inactive
CG4021 | DRSC25492 | 9.54e5 | 1.01e6 | 1.03e6 | 1.08e6 | inactive
CG13589 | DRSC04225 | 3.92e5 | 4.24e5 | 2.21e6 | 2.39e6 | inactive
CG13589 | DRSC26885 | 3.05e5 | 4.41e5 | 7.56e5 | 1.03e6 | inactive
sprt | DRSC07323 | 7.96e5 | 8.64e5 | 1.96e6 | 1.81e6 | inactive
CG13437 | DRSC06397 | 1.12e5 | 1.43e5 | 1.21e6 | 1.52e6 | inactive
wdn | DRSC17095 | 1.07e5 | 77155 | 4.44e5 | 3.54e5 | inactive
wdn | DRSC29088 | 5.46e5 | 5.72e5 | 8.31e5 | 7.71e5 | inactive

A portion taken from the entries so far:
predicted target | DRSC id | firefly reporter light, replicate 1 | firefly reporter light, replicate 2 | Renilla control light, replicate 1 | Renilla control light, replicate 2 | Outcome
CG32073 | DRSC09087 | 2.14e5 | 46615 | 3.54e5 | 1.47e5 | inactive
CG32073 | DRSC09894 | 2.95e5 | 3.30e5 | 3.45e6 | 3.16e6 | inactive
CR32733 | DRSC17481 | 3.34e5 | 3.29e5 | 6.61e5 | 5.41e5 | inactive
CR32733 | DRSC28689 | 2.69e5 | 2.96e5 | 1.42e6 | 1.60e6 | inactive

The listing continues:
predicted target | DRSC id | firefly reporter light, replicate 1 | firefly reporter light, replicate 2 | Renilla control light, replicate 1 | Renilla control light, replicate 2 | Outcome
Papst2 | DRSC10924 | 45195 | 40983 | 4.46e5 | 3.50e5 | inactive
Papst2 | DRSC27212 | 2.78e5 | 2.47e5 | 5.38e5 | 5.25e5 | inactive
rib | DRSC07021 | 9.07e5 | 8.01e5 | 1.08e6 | 1.10e6 | inactive
phtm | DRSC20237 | 2.57e5 | 1.05e5 | 1.10e6 | 3.06e5 | inactive
phtm | DRSC26997 | 3.36e5 | 3.79e5 | 8.11e5 | 3.88e5 | inactive
CG30428 | DRSC04041 | 2.16e5 | 2.51e5 | 5.62e5 | 6.29e5 | inactive
CG30428 | DRSC28228 | 3.39e5 | 8.27e5 | 9.91e5 | 2.25e6 | inactive
Srx | DRSC20005 | 5.78e5 | 4.66e5 | 3.67e6 | 3.20e6 | inactive
CG1648 | DRSC06610 | 3.66e5 | 4.78e5 | 1.55e6 | 2.08e6 | inactive
CG1648 | DRSC27450 | 5.52e5 | 5.14e5 | 1.00e6 | 1.12e6 | inactive
CG31189 | DRSC16198 | 1.91e5 | 1.86e5 | 2.20e6 | 2.61e6 | inactive
CR12842 | DRSC06188 | 3.88e5 | 4.41e5 | 1.81e6 | 1.45e6 | inactive
CR12842 | DRSC24909 | 1.42e6 | 1.22e6 | 9.67e5 | 1.19e6 | inactive
CG3857 | DRSC18542 | 1.48e5 | 1.33e5 | 9.76e5 | 5.71e5 | inactive
CG12684 | DRSC17875 | 3.09e5 | 2.34e5 | 2.89e6 | 3.11e6 | inactive
Dh44 | DRSC12747 | 80386 | 67262 | 8436 | 1.77e5 | inactive
Dh44 | DRSC16409 | 1.87e5 | 1.06e5 | 2.79e6 | 1.94e6 | inactive
CG33288 | DRSC11484 | 1.58e5 | 1.56e5 | 3.12e5 | 3.12e5 | inactive
FAM21 | DRSC06623 | 1.16e6 | 1.11e6 | 1.17e6 | 1.11e6 | inactive
FAM21 | DRSC26589 | 2.08e5 | 2.15e5 | 6.77e5 | 5.64e5 | inactive
FAM21 | DRSC39034 | 6.45e5 | 6.18e5 | 1.88e6 | 1.90e6 | inactive
dachs | DRSC01026 | 4.45e5 | 8.97e5 | 5.96e5 | 1.98e6 | inactive
dachs | DRSC02072 | 5.53e5 | 8.42e5 | 1.83e6 | 1.77e6 | inactive
dachs | DRSC02191 | 2.61e5 | 1.57e5 | 2.00e6 | 2.06e6 | inactive
dachs | DRSC26121 | 2.96e5 | 2.80e5 | 8.09e5 | 8.40e5 | inactive
dachs | DRSC28403 | 3.36e5 | 5.15e5 | 6.25e5 | 1.00e6 | inactive
Pkc98E | DRSC16791 | 89220 | 82433 | 6.99e5 | 4.50e5 | inactive
Pkc98E | DRSC28311 | 5.52e5 | 7.09e5 | 1.25e6 | 1.34e6 | active
Pkc98E | DRSC37000 | – | – | – | – | inactive
